Test results from patent US9057734B2, “Optogenetic probes for measuring membrane potential” (President and Fellows of Harvard College, priority 2010, dated 2015).

System: HEK-293 cells
Experiment: Fluorescence versus membrane potential under whole-cell voltage clamp (ramp, step, frequency response, noise)
Type: cell-based, human
Details: for Noise in V̂FL (membrane potential estimated from fluorescence): frequencies f ≧ 0.1 Hz in HEK cells; for noise/accuracy of voltage estimated from fluorescence: over timescales <12 s
Method: Fluorescence of Arch 3 in HEK 293 cells was readily imaged in an inverted fluorescence microscope with red illumination (λ=640 nm, I=540 W/cm^2), a high numerical aperture objective, a Cy5 filter set, and an EMCCD camera. […] Cells not expressing Arch were not fluorescent.
HEK-293 cells were grown at 37° C., 5% CO2, in DMEM supplemented with 10% FBS and penicillin-streptomycin. Plasmids were transfected using LIPOFECTAMINE™ and PLUS reagent (Invitrogen) following the manufacturer's instructions, and assayed between 48-72 hours later. The day before recording, cells were re-plated onto glass-bottom dishes (MatTek) at a density of ˜5000 cells/cm^2.
The concentration of endogenous retinal in the HEK cells was not known, so the cells were supplemented with retinal by diluting stock retinal solutions (40 mM, DMSO) in growth medium to a final concentration of 5 μM, and then placing the cells back in the incubator for 1-3 hours. All imaging and electrophysiology were performed in Tyrode's buffer (containing, in mM: 125 NaCl, 2 KCl, 3 CaCl2, 1 MgCl2, 10 HEPES, 30 glucose pH 7.3, and adjusted to 305-310 mOsm with sucrose). Only HEK cells having reversal potentials between −10 and −40 mV were included in the analysis.
Simultaneous fluorescence and whole-cell patch clamp recordings were acquired on a home-built, inverted epifluorescence microscope at room temperature. A diode laser operating at 100 mW, 640 nm (CrystaLaser, DL638-100-O) provided wide-field illumination at an intensity typically between 500-2000 W/cm^2. To minimize background signal from out-of-focus debris, illumination was often performed in through-the-objective total internal reflection fluorescence (TIRF) mode. Fluorescence emission was collected using a 60×, 1.45 NA oil immersion objective (Olympus), and separated from scattered excitation using a 660-760 nm bandpass emission filter (Chroma). For fast imaging of dynamic fluorescence responses and action potentials, images were acquired on an Andor iXon^+ 860 camera operating at up to 2,000 frames/s (using a small region of interest and pixel binning). Slower images with higher spatial resolution were acquired on an Andor iXon^+ 897 EMCCD. Custom software written in LabView (National Instruments) was used to synchronize illumination, collection of images, recording of membrane potential and cell current, and application of electrical stimuli to the cell.
Filamented glass micropipettes (WPI) were pulled to a tip resistance of 3-10 MΩ, fire polished, and filled with internal solution (containing, in mM: 125 Potassium gluconate, 8 NaCl, 0.6 MgCl2, 0.1 CaCl2, 1 EGTA, 10 HEPES, 4 Mg-ATP, 0.4 Na-GTP, pH 7.3; adjusted to 295 mOsm with sucrose). The micropipettes were positioned with a Burleigh PCS 5000 micromanipulator. Whole-cell, voltage clamp recordings were acquired using an AxoPatch 200B amplifier (Molecular Devices), filtered at 2 kHz with the internal Bessel filter, and digitized with a National Instruments PCIE-6323 acquisition board at 10 kHz. Ambient 60 Hz noise was removed using a HumBug Noise Eliminator (AutoMate Scientific). For experiments requiring rapid modulation of transmembrane potential, series resistance and whole-cell capacitance were predicted to 95% and corrected to ˜50%. Electrical stimuli were generated using the PCIE-6323 acquisition board and sent to the AXOPATCH™, which then applied these signals in either constant current or constant voltage mode.
To measure fluorescence as a function of membrane potential, a triangle wave was applied, with amplitude from −150 mV to +150 mV and period 12 s, with video recording at 100 ms per frame. A pixel weight matrix was calculated according to Eq. S2 and applied to the movie images to generate a fluorescence number for each frame. These fluorescence values were divided by their minimum value (at V=−150 mV). The result is plotted as a function of Vin FIGS. 7 and 8. […]

| Molecule | Noise in V̂FL (membrane potential estimated from fluorescence) [μV/Hz^1/2] | noise/accuracy of voltage estimated from fluorescence | shot-noise limited noise floor in V̂FL (voltage clamp at constant V=0 mV, frequencies above 10 Hz) | share of step response in the fast component (step response) [%] |
| --- | --- | --- | --- | --- |
| Arch 3 WT: Archaerhodopsin 3, light-driven proton pump from Halorubrum sodomense, used as fluorescent voltage indicator (protein, Halorubrum sodomense, Archaerhodopsin 3, light-driven proton pump from Halorubrum sodomense, used as fluorescent voltage indicator) MDPIALQAGYDLLGDGRPETLWLGIGTLLMLIGTFYFLVRGWGVTDKDAREYYAVTILVPGIASAAYLSMFFGIGLTEVTVGGEMLDIYYARYADWLFTTPLLLLDLALLAKVDRVTIGTLVGVDALMIVTGLIGALSHTAIARYSWWLFSTICMIVVLYFLATSLRSAAKERGPEVASTFNTLTALVLVLWTAYPILWIIGTEGAGVVGLGIETLLFMVLDVTAKVGFGFILLRSRAILGDTEAPEPSAGADVSAAD | 625 | 625 μV/(Hz)^1/2 | 470 μV/(Hz) ½ |  |
| Arch D95N: D95N mutant of Archaerhodopsin 3 without photocurrent, voltage indicator (protein, UniProt P96787 7-258, looked up, variant D95N) Archaerhodopsin-3: QAGYDLLGDGRPETLWLGIGTLLMLIGTFYFLVRGWGVTDKDAREYYAVTILVPGIASAAYLSMFFGIGLTEVTVGGEMLDIYYARYANWLFTTPLLLLDLALLAKVDRVTIGTLVGVDALMIVTGLIGALSHTAIARYSWWLFSTICMIVVLYFLATSLRSAAKERGPEVASTFNTLTALVLVLWTAYPILWIIGTEGAGVVGLGIETLLFMVLDVTAKVGFGFILLRSRAILGDTEAPEPSAGADVSAAD | 260 | 260 μV/(Hz)^1/2 |  | 20 |
